Only a part is listed here, and it is no random draw. At the low end of the ranking the order means little.

This assay addresses T1, ETV3L (UniProt Q6ZN32).
T1 sequence: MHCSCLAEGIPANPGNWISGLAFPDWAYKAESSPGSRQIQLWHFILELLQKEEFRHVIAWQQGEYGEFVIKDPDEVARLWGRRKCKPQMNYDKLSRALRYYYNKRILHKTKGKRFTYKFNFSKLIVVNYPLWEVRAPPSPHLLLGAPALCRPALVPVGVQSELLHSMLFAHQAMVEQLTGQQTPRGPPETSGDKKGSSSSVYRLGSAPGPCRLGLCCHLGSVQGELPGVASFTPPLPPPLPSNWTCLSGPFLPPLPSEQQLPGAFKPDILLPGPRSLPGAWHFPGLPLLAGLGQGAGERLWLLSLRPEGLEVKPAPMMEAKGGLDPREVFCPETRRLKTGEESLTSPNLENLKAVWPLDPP
Description: DAPPL (digital affinity profiling via proximity ligation, sequencing). The settings on record: 10 mM Tris-HCl pH 7.5, 50 mM NaCl, 1 mM DTT, 4% glycerol, room temperature, 30 min; GST-TFs on glutathione beads, 16-mer random dsDNA library, 0.1% …; high values mean tight binding; double strand, one strand shown; scale: fold enrichment (6-mer frequency, TF over GST control).
As for GCAGCG, the binding signal is 0.864. Next, GACGGA: 0.483; ACGCAA: 0.844. Next, GGCCGT: 0.402; TGGGAG: 0.46. Next, GGAGCC: 0.307; AGAGCC: 0.67. In turn, GGGCAC registered a binding signal of 0.752. For the sequence GGCAAC, the binding signal stood at 0.961. In turn, CAAGGA displayed a binding signal of 0.756. The sequence GGAGCA showed a binding signal of 0.448. Next, GGCATG: 0.892. For the sequence GACGCG, the binding signal stood at 0.669. With GTCGCT, the binding signal was 0.779.

GGGGCG registered a binding signal of 0.619.

The sequence GGCACA gave a binding signal of 0.853. For the sequence GGTCGT, the binding signal came to 0.61. Next, TAGGAG: 0.377; GTGGCG: 0.93.

In turn, CAGAGC came in with a binding signal of 0.814.

On to ATGGAG, for which the binding signal came out at 0.592. The value for CGTAGT was 0.841; that for AACAGT was 0.646; that for GGGGCC was 0.577. The value for CGCAGC was 0.792; that for CTGAGT was 0.623; that for CAGGTT was 0.66.

For the sequence CAGTGT, the binding signal was 0.757.

On to TGTGTA, for which the binding signal was 0.853.

Take CGGTGA: the binding signal was 0.458. On to AAGGAC, for which the binding signal is 0.827. Next, GAAGAC: 0.872; AGGTCG: 0.529; GAGCGC: 0.614. GAGTTA registered a binding signal of 0.603. In turn, TAGGAC registered a binding signal of 0.911. The value for AGGAGC was 0.364; that for CAGCGT was 0.778.

Source of the values: paper PMC7862700.
